Literature values in patent publication US20170119899A1, “COMPOSITIONS AND METHODS FOR TREATMENT OF PEROXISOMAL DISORDERS AND LEUKODYSTROPHIES” (The Johns Hopkins University, priority 2015, published 2017).
At least one structure is not confirmed: it was looked up by name or label, or the drawing left a doubt.

Assays:
[1] = only low plasma levels achieved; cited from earlier work
ELOVL1 = target: T1, ELOVL1 (Homo sapiens, UniProt Q9BW60); conditions: cited from earlier work
T1 construct: host or cells: X-ALD fibroblasts
T1 sequence (Q9BW60 1-279): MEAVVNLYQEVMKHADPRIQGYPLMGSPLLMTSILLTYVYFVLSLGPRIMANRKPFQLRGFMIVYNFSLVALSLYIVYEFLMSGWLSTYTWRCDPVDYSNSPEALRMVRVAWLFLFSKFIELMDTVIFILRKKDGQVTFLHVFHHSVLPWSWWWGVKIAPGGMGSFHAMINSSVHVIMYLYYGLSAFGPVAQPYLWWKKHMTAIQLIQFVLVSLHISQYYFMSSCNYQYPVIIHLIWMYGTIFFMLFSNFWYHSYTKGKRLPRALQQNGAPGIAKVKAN

ABCD1 KO mice = conditions: mouse, in vivo; cited from earlier work

| SMILES | Plasma VLCFA levels in ALD patients [1] | VLCFA levels in X-ALD fibroblasts (ELOVL1) | Locomotor disability and axonal damage (ABCD1 KO mice) |
| --- | --- | --- | --- |
| CC(C)(Oc1ccc(CCNC(=O)c2ccc(Cl)cc2)cc1)C(=O)O [Bezafibrate] | failed to reduce plasma VLCFA levels in ALD patients | reduces VLCFA levels in X-ALD fibroblasts by inhibiting ELOVL1 |  |
| CCc1ccc(CCOc2ccc(CC3SC(=O)NC3=O)cc2)nc1 (stereo not drawn) [Pioglitazone] |  |  | halted locomotor disability and axonal damage in ABCD1 KO mice |
